The values that follow come from article PMC8242032, “Non-canonical function of DGCR8 in DNA double-strand break repair signaling and tumor radioresistance” (Nature Communications, 2021).

Amino acid sequences for entries named in this document (tags omitted).
UniProt Q14676: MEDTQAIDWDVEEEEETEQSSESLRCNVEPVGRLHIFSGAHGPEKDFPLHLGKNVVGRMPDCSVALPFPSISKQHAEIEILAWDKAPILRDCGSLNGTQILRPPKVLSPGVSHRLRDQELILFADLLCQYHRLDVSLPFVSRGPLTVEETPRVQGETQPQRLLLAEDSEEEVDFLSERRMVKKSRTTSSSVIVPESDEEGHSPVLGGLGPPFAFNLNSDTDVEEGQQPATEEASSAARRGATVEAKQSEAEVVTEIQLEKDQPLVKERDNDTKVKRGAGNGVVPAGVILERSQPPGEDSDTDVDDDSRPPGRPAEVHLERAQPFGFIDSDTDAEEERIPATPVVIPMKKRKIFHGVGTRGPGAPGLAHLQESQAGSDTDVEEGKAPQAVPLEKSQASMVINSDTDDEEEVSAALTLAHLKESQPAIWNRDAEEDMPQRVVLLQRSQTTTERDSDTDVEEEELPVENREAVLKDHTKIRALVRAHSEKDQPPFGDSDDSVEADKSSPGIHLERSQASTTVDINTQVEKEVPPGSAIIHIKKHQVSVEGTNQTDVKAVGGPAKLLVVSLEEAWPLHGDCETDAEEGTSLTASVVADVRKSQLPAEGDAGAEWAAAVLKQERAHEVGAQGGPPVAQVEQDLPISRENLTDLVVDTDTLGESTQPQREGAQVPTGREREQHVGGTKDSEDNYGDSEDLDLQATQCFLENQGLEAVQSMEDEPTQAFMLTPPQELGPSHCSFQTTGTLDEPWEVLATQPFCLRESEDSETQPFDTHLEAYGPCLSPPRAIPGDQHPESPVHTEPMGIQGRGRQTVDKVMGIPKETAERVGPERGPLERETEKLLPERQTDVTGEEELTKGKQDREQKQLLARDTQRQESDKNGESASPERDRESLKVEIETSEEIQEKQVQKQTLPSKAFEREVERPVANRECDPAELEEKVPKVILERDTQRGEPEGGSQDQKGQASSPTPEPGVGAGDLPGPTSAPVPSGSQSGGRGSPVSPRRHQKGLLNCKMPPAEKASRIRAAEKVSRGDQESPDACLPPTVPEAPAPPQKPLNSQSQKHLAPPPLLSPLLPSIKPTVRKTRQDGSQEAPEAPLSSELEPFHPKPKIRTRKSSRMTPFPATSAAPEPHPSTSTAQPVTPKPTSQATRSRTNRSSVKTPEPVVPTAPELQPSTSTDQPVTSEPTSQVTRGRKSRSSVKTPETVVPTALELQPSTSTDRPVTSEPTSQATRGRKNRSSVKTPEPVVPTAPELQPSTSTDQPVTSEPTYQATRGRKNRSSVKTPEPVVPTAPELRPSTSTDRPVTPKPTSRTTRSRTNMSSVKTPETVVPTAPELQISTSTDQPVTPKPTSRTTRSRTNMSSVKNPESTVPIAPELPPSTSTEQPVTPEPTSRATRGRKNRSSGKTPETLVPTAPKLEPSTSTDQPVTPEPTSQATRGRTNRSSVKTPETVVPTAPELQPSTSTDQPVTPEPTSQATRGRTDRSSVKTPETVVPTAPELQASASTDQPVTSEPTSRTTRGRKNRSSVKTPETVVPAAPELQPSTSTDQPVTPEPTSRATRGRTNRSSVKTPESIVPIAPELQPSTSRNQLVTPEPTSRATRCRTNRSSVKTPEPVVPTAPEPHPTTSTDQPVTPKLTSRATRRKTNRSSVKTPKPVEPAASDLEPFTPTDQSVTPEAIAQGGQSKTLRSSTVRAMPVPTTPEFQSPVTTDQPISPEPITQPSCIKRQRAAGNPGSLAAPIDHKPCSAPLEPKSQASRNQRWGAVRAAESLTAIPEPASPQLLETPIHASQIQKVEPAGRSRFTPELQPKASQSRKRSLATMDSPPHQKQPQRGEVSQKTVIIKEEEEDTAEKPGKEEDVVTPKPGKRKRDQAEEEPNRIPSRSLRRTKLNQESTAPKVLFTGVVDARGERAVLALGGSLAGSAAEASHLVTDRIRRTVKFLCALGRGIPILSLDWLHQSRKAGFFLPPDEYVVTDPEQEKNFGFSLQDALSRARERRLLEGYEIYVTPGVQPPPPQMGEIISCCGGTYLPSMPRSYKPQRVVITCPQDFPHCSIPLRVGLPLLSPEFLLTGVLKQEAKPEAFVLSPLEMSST

Substitutions are numbered along the chain they refer to. These are yes or no findings as the source states them, for the method shown. Binding seen in cells or lysates may run through a third protein. Some entries that bind do so weakly or less than the wild type. For some assays here: Sequences can lack the tags named with a protein.

Test [1] has as its target T1, MYC-DGCR8 (wild-type, full-length) (human) (UniProt Q8WYQ5).
T1 sequence: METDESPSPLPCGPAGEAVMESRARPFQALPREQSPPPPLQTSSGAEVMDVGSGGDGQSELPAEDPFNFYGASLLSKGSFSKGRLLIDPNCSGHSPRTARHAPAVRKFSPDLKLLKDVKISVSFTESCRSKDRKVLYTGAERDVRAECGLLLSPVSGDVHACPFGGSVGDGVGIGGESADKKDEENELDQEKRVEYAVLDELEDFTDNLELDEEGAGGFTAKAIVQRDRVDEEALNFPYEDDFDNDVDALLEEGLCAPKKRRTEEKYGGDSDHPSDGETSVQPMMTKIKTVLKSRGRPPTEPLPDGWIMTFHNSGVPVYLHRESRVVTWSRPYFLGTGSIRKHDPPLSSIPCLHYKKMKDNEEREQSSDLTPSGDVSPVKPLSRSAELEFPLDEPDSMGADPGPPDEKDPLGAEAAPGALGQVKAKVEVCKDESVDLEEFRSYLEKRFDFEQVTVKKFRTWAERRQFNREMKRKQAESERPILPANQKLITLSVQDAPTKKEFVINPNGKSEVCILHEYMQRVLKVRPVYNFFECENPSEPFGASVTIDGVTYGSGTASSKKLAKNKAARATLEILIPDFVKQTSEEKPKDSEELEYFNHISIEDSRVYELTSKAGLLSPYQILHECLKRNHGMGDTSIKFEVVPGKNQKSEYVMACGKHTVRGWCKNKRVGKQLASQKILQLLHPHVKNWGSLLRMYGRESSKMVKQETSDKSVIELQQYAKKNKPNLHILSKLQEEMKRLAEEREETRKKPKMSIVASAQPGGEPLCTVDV
In words: co-IP; DGCR8 co-IP in HEK293T cells with or without IR (Supplementary Fig. 2c; details not shown).

In test [2] the target is T2, DGCR8 (endogenous) (human (endogenous in LM2)) (UniProt Q8WYQ5).
T2 sequence: T1 sequence
In words: co-IP; chromatin fractions of LM2 cells (IR 8 Gy followed by 1 h), with or without MNase treatment, immunoprecipitated with a DGCR8-specific antibody.

For test [3], the target named is T3, RNF8 (endogenous) (human (endogenous in LM2)) (UniProt O76064).
T3 sequence: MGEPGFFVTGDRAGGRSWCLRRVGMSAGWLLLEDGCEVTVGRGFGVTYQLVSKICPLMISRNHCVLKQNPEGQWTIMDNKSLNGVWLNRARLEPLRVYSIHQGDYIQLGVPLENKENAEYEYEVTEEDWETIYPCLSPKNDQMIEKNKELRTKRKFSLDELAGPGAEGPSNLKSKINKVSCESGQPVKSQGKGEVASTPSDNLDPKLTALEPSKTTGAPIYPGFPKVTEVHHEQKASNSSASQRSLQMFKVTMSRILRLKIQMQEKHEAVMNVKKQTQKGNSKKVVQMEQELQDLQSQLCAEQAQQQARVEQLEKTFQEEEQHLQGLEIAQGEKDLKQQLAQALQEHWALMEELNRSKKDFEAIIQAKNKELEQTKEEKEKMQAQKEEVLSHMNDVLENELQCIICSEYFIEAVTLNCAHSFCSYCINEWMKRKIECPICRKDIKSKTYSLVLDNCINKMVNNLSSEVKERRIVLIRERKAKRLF
In words: co-IP; endogenous proteins, control LM2 cells, IR 8 Gy followed by 1 h; lysed in CHAPS buffer; immunoprecipitation with an antibody against RNF168 or RNF8.

In test [4] the target is T1, MYC-DGCR8 (wild-type, full-length) (human). Briefly: co-IP; MYC-tagged DGCR8 (WT, S677A or S677D) overexpressed in LM2 cells, with or without IR (8 Gy followed by 1 h or 8 h); pulldown with anti-MYC agarose beads, 4 °C, 2 h; immunoblotting. (In general: A western blot detects proteins with antibodies after separation by electrophoresis.)
Test [5] addresses T4, MYC-DGCR8 S677A (phosphodeficient mutant) (human) (UniProt Q8WYQ5).
T4 sequence: T1 sequence with S677A
The test is described as above.

Test [6] addresses T5, MYC-DGCR8 S677D (phosphomimetic mutant) (human) (UniProt Q8WYQ5).
T5 sequence: T1 sequence with S677D
Described as above.

With “MDC1 (endogenous) (from UniProt Q14676 1-2089)”, the binding result in test [1] is on record as “binds”; in test [2], “binds”; in test [3] it was “binds”; in test [4], “binds”; in test [5], “no binding”; in test [6], “binds”.

B1: RNF8 (endogenous) (enzyme, UniProt O76064 1-485)
chain: T3 sequence
Consider B1, for which the binding entry is on record as “binds” in test [1]; “binds” in test [2]; “binds” in test [4]; “no binding” in test [5]; “binds” in test [6].
